Source: patent publication US9259412B2, “Composition of the treatment of vascular diseases or KCa3.1 channel-mediated diseases comprising modafinil or derivatives thereof” (EWHA UNIVERSITY—INDUSTRY COLLABORATION FOUNDATION, priority 2011, dated 2016)
For some assays here: The name of at least one read-out is uncertain. For at least one compound, name, drawing or mass did not settle the structure.

Tests used:
Format in all cases: cell-based
[1] = system: NIH-3T3 fibroblasts; experiment: Measurement of intracellular cAMP in NIH-3T3 fibroblasts; conditions: NIH-3T3 cells
Description: Meanwhile, NIH-3T3 fibroblasts were used to verify the effect on KCa3.1 mediated diseases. NIH-3T3 fibroblasts (CRL-2795; American Type Culture Collection, VA, USA) were maintained in the following manner. Cells were cultivated as a monolayer in Dulbecco's Modified Eagle Medium (DMEM, Hyclone, Logan, Utah, USA) added with 10% fetal bovine serum (FBS), 100 units/ml penicillin, and 100 μg/ml streptomycin. All cells were maintained at 37° C. in humidified condition under 5% CO2. Media were changed twice weekly, and cultures were passaged at a dilution of 1:5 weekly. The medium was then removed and replaced with fresh medium, and the cells were maintained for the time periods indicated.
NIH-3T3 fibroblasts were incubated with modafinil for 3 minutes within incomplete media. The concentration of cAMP (adenosine 3′,5′-cyclic monophosphate) from lysate was determined in each sample using a Parameter cAMP assay kit (R&D systems) according to the manufacturer's instructions.

[2] = biological target: T1, KCa3.1 channel (Mus musculus, UniProt O89109); experiment: Whole-cell patch-clamp of KCa3.1 currents in NIH-3T3 fibroblasts
T1 construct: cells which were not exposed to modafinil or forskolin were immunoblotted by anti-KCa3.1 antibody to confirm the presence of KCa3.1 channels; endogenous in cells; host or cells: NIH-3T3 fibroblasts
Description: Electrophysiological analysis was performed according to the methods reported by Nilius and the like [Nilius et al., 1993, Pflugers Arch., 424(3-4): 285-293]. The patch-clamp technique was used in the whole-cell and excised patch configurations at room temperature. Whole-cell currents were measured using ruptured patches. Currents were monitored using an appropriate amplifier (EPC-10, HEKA, Lambrecht, Germany). In the whole cell experiment, we applied a voltage ramp from −100 mV to +100 mV with a 10 sec interval (650 ms duration) or voltage steps from a holding potential of −60 mV to potentials ranging from −100 mV to +100 mV in 20 mV increments (1 sec duration) with a 5 sec interval. Currents were recorded at a sampling rate of 1-4 kHz. Inside-out voltage clamps were performed using glass electrodes of tip resistance of 8-10 MΩ. Data were filtered at 1 KHz and stored in a computer for analysis using standard software (Axoscope 9.0, Axon Instruments, Foster City, Calif., USA). For some experiments, channel activity was expressed as the product of the number of channels times open probability (NPo), where NPo=Σ[(open time×number of open channels)/Total time of record].
The standard external solution contains the following substance within NaOH solution of pH 7.4; 150 mM NaCl, 6 mM KCl, 1.5 mM CaCl2, 1 mM MgCl2, 10 mM HEPES, and 10 mM glucoses. The osmolarity of this solution, as determined by an osmometer (Fiske, Norwood, Mass., USA), was 320±5 mOsm. In the inside-out mode, the bath solution contains 150 mM KCl, 0.5 mM MgCl2, 10 mM HEPES within KOH solution of pH 7.2, and the pipette solution contains 150 mM NaCl, 6 mM KCl, 1 mM MgCl2, 10 mM HEPES, 10 mM glucoses, 5 mM EGTA within NaOH solution of pH 7.4. Free Ca2+ concentrations in the pipette or bath solutions were adjusted to 1 μM by adding appropriate amounts of Ca2+ (calculated using CaBuf software; G. Droogmans, Leuven, ftp://ftp.cc.kuleuven.ac.be/pub/droogmans/cabuf.zip) in the presence of 5 mM EGTA. […]

[3] = system: KCa3.1 channel; experiment: Western blotting of KCa3.1 channel phosphorylation in NIH-3T3 cells; conditions: treatment for 5 min
Description: After the treatment, cells were washed once in ice-cold phosphate buffered saline (PBS) and lysed in protein extraction buffer containing protease inhibitor cocktail. Protein concentration in the supernatant was determined by Bradford protein assay. For Western blot analysis, 30 μg of protein was subjected to SDS-PAGE, and proteins were then transferred to a nitrocellulose membrane. Membranes were blocked for 1 hour with TBST (10 mM Tris-HCl, 150 mM NaCl, and 1% (v/v) Tween-20, pH 7.6) containing 5% bovine serum albumin (BSA) at room temperature. The blots were incubated for 3 hours with rabbit anti-P-PKA substrate antibody followed by incubation with horseradish peroxidase-conjugated secondary antibodies for 1 hour. Bands were visualized by chemiluminescence. Data collection and processing were performed using a luminescent image analyzer LAS-3000 and IMAGE GAUSE software (Fuji Film, Japan).

Compound | intracellular cAMP concentration [1] | effect on KCa3.1 currents ([2]; 10 μM added in the external solution at steady state) | effect on KCa3.1 currents with PKI14-22 in the pipette solution ([2]; PKI14-22 (10 μM) in pipette solution) | KCa3.1 channel phosphorylation [3] | effect on EC50 of Ca2+ on KCa3.1 currents ([2]; modafinil 30 nM)
C=C[C@@]1(C)CC(=O)[C@]2(O)[C@@]3(C)[C@@H](O)CCC(C)(C)[C@@H]3[C@H](O)[C@H](OC(C)=O)[C@@]2(C)O1 [forskolin] | increased cAMP concentration | decreased | not affected | increased | 
NC(=O)C[S+]([O-])C(c1ccccc1)c1ccccc1 (centres unmarked) [modafinil, 2-(benzhydrylsulfinyl) acetamide] |  |  |  |  | did not affect
